Source: PubChem BioAssay (Tox21)
Where “and” joins values, the source holds several entries; their conditions need not be identical. Identical values can stand only once. Inconclusive means that the source gave no clear call. Such entries were picked first, then a sample of the others. Where the call is inconclusive, the potency comes from a doubtful curve fit. Calls of active or inactive are those of the source. Calls follow the shape of the dose curve; as a rule, active = well fitted inhibition curve with a large enough effect in the repeat runs; inconclusive = weak or mixed curves; inactive = no such curve, though single readings can be large or run the other way.

Protein sequences, listed by entry. Tags and fused reporters are not part of them.
UniProt P11712, whole entry, looked up: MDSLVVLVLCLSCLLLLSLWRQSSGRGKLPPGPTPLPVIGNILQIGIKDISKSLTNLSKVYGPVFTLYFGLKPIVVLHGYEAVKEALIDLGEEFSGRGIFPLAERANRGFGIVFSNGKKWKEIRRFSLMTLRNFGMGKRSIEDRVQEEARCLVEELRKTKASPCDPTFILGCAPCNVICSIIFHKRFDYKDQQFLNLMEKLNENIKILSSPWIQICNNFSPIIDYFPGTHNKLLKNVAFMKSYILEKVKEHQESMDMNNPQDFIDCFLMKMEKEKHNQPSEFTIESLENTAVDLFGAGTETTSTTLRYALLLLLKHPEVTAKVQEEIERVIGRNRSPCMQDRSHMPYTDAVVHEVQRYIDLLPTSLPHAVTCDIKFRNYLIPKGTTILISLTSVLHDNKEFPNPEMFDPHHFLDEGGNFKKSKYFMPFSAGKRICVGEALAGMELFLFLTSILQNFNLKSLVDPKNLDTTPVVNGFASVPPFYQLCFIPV

biological target: Cytochrome P450 2C9 (Homo sapiens) (UniProt P11712); assay: Cytochrome P450 Family 2 Subfamily C Member 9 (CYP2C9) small molecule antagonists: luciferase reporter qHTS assay (AID 1671198); details: P450-Glo CYP2C9 enzyme assay, luciferin luminescence; series mostly up to 115 µM; activity change, negative = inhibition: at the top concentration; also: nearly all actives have a fitted effect of over 50% in size
Description: U.S. Tox21 Program National Center for Advancing Translational Sciences [NCATS] U.S. Environmental Protection Agency [EPA] National Institutes of Environmental Health Sciences [NIEHS] National Toxicology Program [NTP] U.S. Food and Drug Administration [FDA] Tox21 Assay Overview: Cytochrome P450 (CYP) enzymes are membrane-bound hemeproteins that play a key role in metabolism of drugs and xenobiotics. Evaluation of the effect of chemicals on CYP isozymes is useful to minimize the adverse drug reactions and toxicities in drug development process. Tox21 chemicals were tested for their effect on CYP enzyme activities by using P450-Glo (TM) screening systems (Promega Corporation, Madison, WI). These systems provide a luminescent method containing proluciferin substrates and are converted to luciferin products by CYP isozymes. The luciferin products formed are detected with a luciferin detection reagent, and the amount of light produced is proportional to CYP activity. P450-Glo (TM) CYP2C9 screening system (Catalog. No. V9790) was used to detect the compounds that interfere in CYP2C9 activity.
Tox21 Assay Protocol Summary: Two ul of enzyme-substrate mix was dispensed into medium binding white/solid 1536-well plates (Greiner Bio-One North America Inc., Monroe, NC) using a BioRaptr Flying Reagent Dispenser (FRD, Beckman Coulter, Brea, CA). […] The assay plates were incubated at room temperature for 10 min. Then 2 ul of NADPH regeneration solution was added to each well of the assay plates using an FRD and incubated at 37C for 1 h. The reaction was stopped by adding 4 ul of detection reagent using an FRD and after 20 min incubation at room temperature the luminescence signal was measured using a ViewLux plate reader (Perkin Elmer, Shelton, CT). Data were expressed as relative luminescence units.
% is scaled to controls: 0 for no effect and ±100 for the full control effect; potency is read from the fitted curve at half-maximal effect.

| Structure (SMILES) | Potency | activity change, negative = inhibition |
| --- | --- | --- |
| CCOc1ccc(N)cc1 | inconclusive: 63.4 µM [inhibitor, partial curve] and inconclusive: 56.4 µM [inhibitor, partial curve] | – |
| O=C(O)c1nc(Cl)ccc1Cl | inactive | – |
| N#CC(Br)(Br)C(N)=O | inconclusive: 89.4 µM [inhibitor] | – |
| COC(=O)NS(=O)(=O)c1ccc(N)cc1 | inconclusive: 89.8 µM [inhibitor, partial curve, poor fit] and inconclusive: 35.6 µM [inhibitor, partial curve, poor fit] | – |
| CCOP(=O)(OCC)OP(=O)(OCC)OCC | – | inactive: -12.7% |
| Clc1cccc(C(Cl)(Cl)Cl)n1 | inactive | – |
| COc1cnc(OC)n2nc(NS(=O)(=O)c3c(OCC(F)F)cccc3C(F)(F)F)nc12 | active: 35.6 µM | – |
| CCCCc1c(C)nc(NCC)[nH]c1=O | – | inactive: -8.03% |
| CNC(=O)O/N=C/C(C)(C)SC | inconclusive: 71.7 µM [inhibitor, partial curve] and inconclusive: 63.3 µM [inhibitor, partial curve, poor fit] | – |
| CCC(=O)c1ccccc1 | – | inactive: -4.4% |
| CC(C)OC(=O)Nc1cccc(Cl)c1 | active: 55.6 µM and active: 71 µM | – |
| CC(C)(C)NCC(O)c1cc(Cl)c(N)c(C(F)(F)F)c1 (stereo not given) | – | inactive: -1.83% [at 53 µM] |
| CC(Oc1cccc(Cl)c1)C(=O)O (stereo not given) | inconclusive: 89.4 µM [inhibitor, single point] | – |
| CCCCCl | inconclusive: 41 µM [inhibitor, partial curve, poor fit] | – |
| CSSC | inconclusive: 40.4 µM [inhibitor, partial curve] | – |
| N#CCCCCC#N | inconclusive: 51.3 µM [inhibitor, partial curve, poor fit] | – |
| CNc1cnn(-c2cccc(C(F)(F)F)c2)c(=O)c1Cl | inconclusive: 43.2 µM [inhibitor, partial curve, poor fit] and inconclusive: 79.6 µM [inhibitor, partial curve] | – |
| CCSC(C)CC1CC(=O)C(/C(CC)=N/OC/C=C/Cl)=C(O)C1 (stereo not given) | active: 13.8 µM | – |
| CCCCSP(=O)(SCCCC)SCCCC | active: 8.73 µM and active: 3.17 µM | – |
| CC(C)OC(=O)Nc1ccccc1 | inconclusive: 71.2 µM [inhibitor, partial curve] and inconclusive: 63.3 µM [inhibitor, partial curve, poor fit] | – |

| Structure (SMILES) | Potency | activity change, negative = inhibition |
| --- | --- | --- |
| OC(Cn1cncn1)(c1ccc(F)cc1)c1ccccc1F (stereo not given) | active: 0.796 µM | – |
| Cc1ccc(O)c(C)c1 | inconclusive: 70 µM [inhibitor] and inconclusive: 83 µM [inhibitor, partial curve, poor fit] | – |
| COC(=O)c1ccccc1C(=O)OC | inconclusive: 63.7 µM [inhibitor, partial curve, poor fit] | – |
| COC(=O)C1=CCCN(C)C1 | – | inactive: 0.979% [at 53 µM] |
| CC(C)c1ccc(NC(=O)N(C)C)cc1 | inconclusive: 39.9 µM [inhibitor, partial curve] | – |
| O=C(Nc1ccccc1)N(Cc1ccc(Cl)cc1)C1CCCC1 | active: 15.9 µM | – |
| O=C(NC(=O)c1cc(F)c(F)cc1Cl)Nc1cc(F)ccc1N1CCC(C(=O)O)CC1 | inconclusive: 34.7 µM [inhibitor, partial curve] | – |
| CC#Cc1cc(C)nc(Nc2ccccc2)n1 | active: 35.5 µM | – |
| O=C1CCCN1 | inconclusive: 63.9 µM [inhibitor, partial curve] and inactive | – |
| COc1ccc(OC)c(C=O)c1 | inconclusive: 35.6 µM [inhibitor, partial curve, poor fit] | – |
| C[C@]1(O)CC[C@H]2[C@@H]3CCC4=CC(=O)CC[C@]4(C)[C@@]3(F)[C@@H](O)C[C@@]21C | inconclusive: 63.7 µM [inhibitor, partial curve] | – |
| O=c1[nH]c(=O)n(Cl)c(=O)n1Cl | inconclusive: 81.1 µM [inhibitor, partial curve, poor fit] | – |
| CN1[C@@H]2CC[C@H]1CC(O)C2 (stereo not given in full) | – | inactive: -11.8% |
| C(CCOCC1CO1)COCC1CO1 (stereo not given) | – | inactive: -17.5% |
| O=CC=O | – | inactive: -0.747% |
| Oc1ccc(I)cc1 | active: 71 µM | – |
| CC(C)Br | active: 40 µM | – |
| Clc1nc(Cl)nc(Nc2ccccc2Cl)n1 | inconclusive: 89.4 µM [inhibitor] | – |
| COC(=O)Cc1ccccc1 | inconclusive: 89.4 µM [inhibitor, partial curve, poor fit] | – |
| CCCCCCCCOC(=O)c1ccc(C(=O)OCCCCCCCC)c(C(=O)OCCCCCCCC)c1 | inconclusive: 50.9 µM [inhibitor, partial curve] | – |
